From US9732078B2, “Therapeutic use of imidazopyridine derivatives” (SANOFI, priority 2012, dated 2017)
Some entries share one result that the patent states for a list of compounds.

Assays:
[1] = tested on: TCC97-7 bladder cancer cells carrying the Ser249Cys mutation of FGF receptor 3; test: Reduction of intracellular ATP content of TCC97-7 cells (Cell Titer-Glo, 3 days, serum-supplemented medium); format: cell-based; conditions: at the doses of 1, 10 or 30 μM
Description: Evaluation of the Capacity of the FGF-R Antagonists to Reduce the ATP Content of TCC97-7 Bladder Cancer Cells Carrying the Ser249Cys Mutation of FGF Receptor 3, Cultured in a Serum-Supplemented Medium
To do this, 3000 cells are seeded in 50 μl of complete medium (Ham-F/12, 1% FCS, […], non-essential amino acids, sodium pyruvate, 1% insulin/transferrin/selenium, hydrocortisone). 16 hours later, 50 μl of the various compounds are added at 0.2, 2, 20 and 60 μM after dilution in complete culture medium in order to obtain final concentrations of 0.1, 1, 10 and 30 μM. After 3 days, the ATP content of the cells is measured using the Cell Titer-Glo® Luminescent Cell Viability Assay kit (Promega, France) according to the supplier's recommendations. The percentage inhibition of the amount of intracellular ATP is calculated by considering the ATP content of the cells cultured in the absence of antagonist to be 0% inhibition. 100% inhibition would correspond to a well in which the ATP content is zero.

[2] = tested on: TCC97-7 bladder cancer tumour cells carrying the Ser249Cys mutation of FGF receptor 3; test: Inhibition of serum-induced proliferation of TCC97-7 bladder cancer cells (count of Hoechst 33342-labelled nuclei after 3 days); format: cell-based; conditions: at the doses of 0.1, 1 or 10 μM
Description: To do this, 2000 cells are seeded in the morning in 50 μl of complete medium (Ham-F/12, 1% FCS, 2 mM glutamine, non-essential amino acids, sodium pyruvate, 1% insulin/transferrin/selenium, hydrocortisone). In the evening, 50 μl of the various compounds are added at 0.02, 0.2, 2 or 20 μM after dilution in complete culture medium in order to obtain final concentrations of 0.01, 0.1, 1 and 10 μM. After 3 days, the cell proliferation is evaluated by measuring the number of nuclei at the bottom of each well corresponding to a number of cells. The nuclei are detected by means of labelling with Hoechst 33342 (Invitrogen, ref H3570). 100 μl of Hoechst 33342 diluted to 1/5000th in PBS are added to each well for 30 min at ambient temperature on non-fixed cells. The nuclei are detected by fluorescence at 350 nm at ×2 magnification with an Operetta (PerkinElmer) using the Acapella (PerkinElmer) imaging software and analysed using the Columbus (PerkinElmer) image analysis software. The percentage inhibition of the cell proliferation is calculated by considering the number of nuclei present in the wells in which the TCC97-7 cells are cultured in the absence of FGF-R antagonists to be 0% inhibition. 100% inhibition would correspond to a well no longer containing cells.

Compound	inhibiting the amount of intracellular ATP in the TCC97-7 cells [1]	inhibiting the proliferation of the TCC97-7 cells [2]
CCCn1c(=O)[nH]c2ccc(C(=O)c3nc(-c4cccc(C(N)=O)c4)c4ccccn34)cc2c1=O [compound 29, 3-{3[(2,4-Dioxo-3-propyl-1,2,3,4-tetrahydroquinazolin-6-yl)carbonyl]imidazo[1,5-a]pyridin-1-yl}benzamide]	more than 20%	more than 20%
CCCn1c(C)nc2ccc(C(=O)c3nc(-c4cccc(C(N)=O)c4)c4ccccn34)cc2c1=O [compound 55, 3-{3-[(2-Methyl-4-oxo-3-propyl-3,4-dihydroquinazolin-6-yl)carbonyl]imidazo[1,5-a]pyridin-1-yl}benzamide]	more than 20%	more than 20%
COCn1c(=O)n(Cc2ccc(F)cc2)c(=O)c2cc(C(=O)c3nc(-c4cccc(C(=O)[O-])c4)c4ccccn34)ccc21.[Na+] [compound 71]	more than 20%	more than 20%
CCOC(=O)c1cccc(-c2nc(C(=O)c3ccc4c(c3)c(=O)n(Cc3ccc(F)cc3)c(=O)n4C)n3ccccc23)c1 [compound 79]	more than 20%	more than 20%
Cn1c(=O)n(Cc2cccc(F)c2)c(=O)c2cc(C(=O)c3nc(-c4cccc(C(N)=O)c4)c4ccccn34)ccc21 [compound 108]	–	more than 20%
Cn1c(=O)n(Cc2ccc(F)cc2)c(=O)c2cc(C(=O)c3nc(-c4cccnc4)c4ccccn34)ccc21 [compound 112, 3-(4-Fluorobenzyl)-1-methyl-6-[(1-pyridin-3-ylimidazo[1,5-a]pyridin-3-yl)carbonyl]quinazoline-2,4(1H, 3H)-dione]	more than 20%	more than 20%
CN(C)CCNC(=O)c1cccc(-c2nc(C(=O)c3ccc4c(c3)c(=O)n(Cc3ccc(F)cc3)c(=O)n4C)n3ccccc23)c1.Cl [compound 116, N-[2-(dimethylamino)ethyl]-3-(3-{[3-(4-fluorobenzyl)-1-methyl-2,4-dioxo-1,2,3,4-tetrahydroquinazolin-6-yl]carbonyl}imidazo[1,5-a]pyridin-1-yl)benzamide hydrochloride]	more than 20%	more than 20%
Cc1nnc(-c2cccc(-c3nc(C(=O)c4ccc5c(c4)c(=O)n(Cc4ccc(F)cc4)c(=O)n5C)n4ccccc34)c2)o1 [compound 140]	–	more than 20%
Cn1c(=O)n(CCc2ccc(F)cc2)c(=O)c2cc(C(=O)c3nc(-c4cccc(C(=O)[O-])c4)c4ccccn34)ccc21.[Na+] [compound 148]	more than 20%	more than 20%
CCCn1c(=O)n(CCCC(C)C)c(=O)c2cc(C(=O)c3nc(-c4cccc(C(=O)[O-])c4)c4ccccn34)ccc21.[Na+] [compound 207]	more than 20%	more than 20%
Cc1ccc(Cn2c(=O)c3cc(C(=O)c4nc(-c5cccnc5)c5ccccn45)ccc3n(C)c2=O)s1 [compound 220]	more than 20%	more than 20%
CCCn1c(=O)n(Cc2ccc(C)s2)c(=O)c2cc(C(=O)c3nc(-c4cccc(C(=O)[O-])c4)c4ccccn34)ccc21.[Na+] [compound 224]	more than 20%	more than 20%
Cn1c(=O)n(Cc2ccc(F)cc2)c(=O)c2cc(C(=O)c3ncc4ccccn34)ccc21 [compound 226]	more than 20%	more than 20%
CCCn1c(=O)n(Cc2ccc(F)cc2)c(=O)c2cc(C(=O)c3nc(-c4cnc(N(C)C)nc4)c4ccccn34)ccc21 [compound 232]	more than 20%	more than 20%
Cc1ccc(Cn2c(=O)c3cc(C(=O)c4nc(-c5cccc(C(=O)[O-])c5)c5ccccn45)ccc3n(C)c2=O)s1.[Na+] [compound 291]	more than 20%	more than 20%
